These are yes or no findings as the source states them, for the method shown. In cells and extracts the contact can be indirect. Some binding calls cover weakened binding; strength is not graded here. Tags and fused reporters may be left off the sequences shown.

Experiment [1] addresses T1, N-terminal-only (aa 1-204) His-tagged recombinant La (7 A) (UniProt P05455).
T1 sequence: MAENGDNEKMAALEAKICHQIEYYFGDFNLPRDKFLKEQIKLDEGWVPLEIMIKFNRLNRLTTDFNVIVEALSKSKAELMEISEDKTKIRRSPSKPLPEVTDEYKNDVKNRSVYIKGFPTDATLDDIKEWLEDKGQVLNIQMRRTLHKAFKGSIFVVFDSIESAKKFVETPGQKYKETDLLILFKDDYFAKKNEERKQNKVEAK
As to the kind of experiment: pull-down; about 1 ug His-tagged recombinant La (full length or aa 1-204) on 50 ul Nickel agarose beads incubated 2 h at 4 C with lysates (EBC buffer) of HEK 293 T cells over-expressing FLAG-RIG-I constructs; washed three times with EBC buffer; western blot; only the target purified.

Experiment [2] concerns the target T2, full-length His-tagged recombinant La (8 A) (UniProt P05455).
T2 sequence: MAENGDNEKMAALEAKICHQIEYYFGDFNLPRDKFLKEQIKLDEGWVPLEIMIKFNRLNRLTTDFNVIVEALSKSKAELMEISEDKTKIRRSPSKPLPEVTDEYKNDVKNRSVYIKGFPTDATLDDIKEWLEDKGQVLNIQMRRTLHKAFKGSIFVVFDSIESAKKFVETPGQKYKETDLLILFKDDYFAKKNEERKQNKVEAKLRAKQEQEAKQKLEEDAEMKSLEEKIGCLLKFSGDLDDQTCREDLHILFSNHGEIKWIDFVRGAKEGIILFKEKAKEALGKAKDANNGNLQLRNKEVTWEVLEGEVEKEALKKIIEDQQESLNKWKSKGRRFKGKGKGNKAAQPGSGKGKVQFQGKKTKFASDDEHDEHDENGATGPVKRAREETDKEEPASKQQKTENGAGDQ
Described as above.

Experiment [3] addresses T3, La/SS-B (endogenous La) (human (endogenous in HEK 293 T)) (UniProt P05455).
T3 sequence: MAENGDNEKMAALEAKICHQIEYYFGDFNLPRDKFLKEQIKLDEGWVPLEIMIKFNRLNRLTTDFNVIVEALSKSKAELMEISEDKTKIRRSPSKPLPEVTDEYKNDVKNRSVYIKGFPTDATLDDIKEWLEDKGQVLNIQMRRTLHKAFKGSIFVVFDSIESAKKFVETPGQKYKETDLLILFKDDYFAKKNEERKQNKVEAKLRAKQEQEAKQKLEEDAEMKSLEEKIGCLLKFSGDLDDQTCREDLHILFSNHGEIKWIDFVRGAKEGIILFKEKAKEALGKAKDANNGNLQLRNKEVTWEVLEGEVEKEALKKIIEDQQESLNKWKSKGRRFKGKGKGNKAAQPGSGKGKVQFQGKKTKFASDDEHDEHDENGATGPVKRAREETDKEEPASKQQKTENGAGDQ
As to the kind of experiment: co-IP; HEK 293 T cells transfected with FLAG-RIG-I, stimulated 1, 3 or 6 h with 1 ug 5'ppp-dsRNA; EBC lysis buffer; endogenous La precipitated with SW5 anti-La antibody on protein A sepharose; RIG-I detected by anti-FLAG western blot. In general terms: A western blot detects proteins with antibodies after separation by electrophoresis.

B1: FLAG-tagged RIG-I (full length) (protein, UniProt O95786 1-925)
chain: MTTEQRRSLQAFQDYIRKTLDPTYILSYMAPWFREEEVQYIQAEKNNKGPMEAATLFLKFLLELQEEGWFRGFLDALDHAGYSGLYEAIESWDFKKIEKLEEYRLLLKRLQPEFKTRIIPTDIISDLSECLINQECEEILQICSTKGMMAGAEKLVECLLRSDKENWPKTLKLALEKERNKFSELWIVEKGIKDVETEDLEDKMETSDIQIFYQEDPECQNLSENSCPPSEVSDTNLYSPFKPRNYQLELALPAMKGKNTIICAPTGCGKTFVSLLICEHHLKKFPQGQKGKVVFFANQIPVYEQQKSVFSKYFERHGYRVTGISGATAENVPVEQIVENNDIIILTPQILVNNLKKGTIPSLSIFTLMIFDECHNTSKQHPYNMIMFNYLDQKLGGSSGPLPQVIGLTASVGVGDAKNTDEALDYICKLCASLDASVIATVKHNLEELEQVVYKPQKFFRKVESRISDKFKYIIAQLMRDTESLAKRICKDLENLSQIQNREFGTQKYEQWIVTVQKACMVFQMPDKDEESRICKALFLYTSHLRKYNDALIISEHARMKDALDYLKDFFSNVRAAGFDEIEQDLTQRFEEKLQELESVSRDPSNENPKLEDLCFILQEEYHLNPETITILFVKTRALVDALKNWIEGNPKLSFLKPGILTGRGKTNQNTGMTLPAQKCILDAFKASGDHNILIATSVADEGIDIAQCNLVILYEYVGNVIKMIQTRGRGRARGSKCFLLTSNAGVIEKEQINMYKEKMMNDSILRLQTWDEAVFREKILHIQTHEKFIRDSQEKPKPVPDKENKKLLCRKCKALACYTADVRVIEECHYTVLGDAFKECFVSRPHPKPKQFSSFEKRAKIFCARQNCSHDWGIHVKYKTFEIPVIKIESFVVEDIATGVQTLYSKWKDFHFEKIPFDPAEMSK
For B1, the binding entry in experiment [1], in experiment [2] and in experiment [3] was “binds” each time.

B2: FLAG-tagged RIG-I-CARD (domain or fragment, UniProt O95786 1-284)
chain: MTTEQRRSLQAFQDYIRKTLDPTYILSYMAPWFREEEVQYIQAEKNNKGPMEAATLFLKFLLELQEEGWFRGFLDALDHAGYSGLYEAIESWDFKKIEKLEEYRLLLKRLQPEFKTRIIPTDIISDLSECLINQECEEILQICSTKGMMAGAEKLVECLLRSDKENWPKTLKLALEKERNKFSELWIVEKGIKDVETEDLEDKMETSDIQIFYQEDPECQNLSENSCPPSEVSDTNLYSPFKPRNYQLELALPAMKGKNTIICAPTGCGKTFVSLLICEHHLKK
In the case of B2, the binding entry in experiment [1] and in experiment [2] was “binds” throughout.

For the origin of these results see article PMC5673980.
